Reference: the supplement of paper PMC11732987, “Enantioselective OTUD7B fragment discovery through chemoproteomics screening and high-throughput optimisation” (Communications Chemistry, 2025)
Some of the results follow. The data scatter; read single values as rough.

Sequences of proteins named here, by UniProt entry; tags and fusion partners are left off. A change or cut given only in a name is not applied to a line headed by its entry. Residues count along the entry.
UniProt Q9H6R3: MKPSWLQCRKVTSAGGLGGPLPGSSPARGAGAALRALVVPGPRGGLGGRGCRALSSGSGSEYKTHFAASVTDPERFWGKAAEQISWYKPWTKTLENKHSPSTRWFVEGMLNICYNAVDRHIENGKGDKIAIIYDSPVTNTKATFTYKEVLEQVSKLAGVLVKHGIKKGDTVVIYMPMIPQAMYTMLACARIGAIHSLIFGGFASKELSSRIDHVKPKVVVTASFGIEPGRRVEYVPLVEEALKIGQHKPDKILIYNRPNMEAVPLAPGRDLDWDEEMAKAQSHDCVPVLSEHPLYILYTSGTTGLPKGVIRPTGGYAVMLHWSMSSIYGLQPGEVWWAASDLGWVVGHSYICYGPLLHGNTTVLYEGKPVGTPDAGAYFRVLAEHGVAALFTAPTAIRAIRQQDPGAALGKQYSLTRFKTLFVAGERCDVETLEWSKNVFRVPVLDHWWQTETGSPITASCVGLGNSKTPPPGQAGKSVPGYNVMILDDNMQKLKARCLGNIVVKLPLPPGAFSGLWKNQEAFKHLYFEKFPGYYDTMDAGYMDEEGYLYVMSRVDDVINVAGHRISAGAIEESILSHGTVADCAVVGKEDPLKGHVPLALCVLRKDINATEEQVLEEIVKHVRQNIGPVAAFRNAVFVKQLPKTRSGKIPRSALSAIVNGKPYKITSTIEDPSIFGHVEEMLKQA
UniProt Q9UKA4: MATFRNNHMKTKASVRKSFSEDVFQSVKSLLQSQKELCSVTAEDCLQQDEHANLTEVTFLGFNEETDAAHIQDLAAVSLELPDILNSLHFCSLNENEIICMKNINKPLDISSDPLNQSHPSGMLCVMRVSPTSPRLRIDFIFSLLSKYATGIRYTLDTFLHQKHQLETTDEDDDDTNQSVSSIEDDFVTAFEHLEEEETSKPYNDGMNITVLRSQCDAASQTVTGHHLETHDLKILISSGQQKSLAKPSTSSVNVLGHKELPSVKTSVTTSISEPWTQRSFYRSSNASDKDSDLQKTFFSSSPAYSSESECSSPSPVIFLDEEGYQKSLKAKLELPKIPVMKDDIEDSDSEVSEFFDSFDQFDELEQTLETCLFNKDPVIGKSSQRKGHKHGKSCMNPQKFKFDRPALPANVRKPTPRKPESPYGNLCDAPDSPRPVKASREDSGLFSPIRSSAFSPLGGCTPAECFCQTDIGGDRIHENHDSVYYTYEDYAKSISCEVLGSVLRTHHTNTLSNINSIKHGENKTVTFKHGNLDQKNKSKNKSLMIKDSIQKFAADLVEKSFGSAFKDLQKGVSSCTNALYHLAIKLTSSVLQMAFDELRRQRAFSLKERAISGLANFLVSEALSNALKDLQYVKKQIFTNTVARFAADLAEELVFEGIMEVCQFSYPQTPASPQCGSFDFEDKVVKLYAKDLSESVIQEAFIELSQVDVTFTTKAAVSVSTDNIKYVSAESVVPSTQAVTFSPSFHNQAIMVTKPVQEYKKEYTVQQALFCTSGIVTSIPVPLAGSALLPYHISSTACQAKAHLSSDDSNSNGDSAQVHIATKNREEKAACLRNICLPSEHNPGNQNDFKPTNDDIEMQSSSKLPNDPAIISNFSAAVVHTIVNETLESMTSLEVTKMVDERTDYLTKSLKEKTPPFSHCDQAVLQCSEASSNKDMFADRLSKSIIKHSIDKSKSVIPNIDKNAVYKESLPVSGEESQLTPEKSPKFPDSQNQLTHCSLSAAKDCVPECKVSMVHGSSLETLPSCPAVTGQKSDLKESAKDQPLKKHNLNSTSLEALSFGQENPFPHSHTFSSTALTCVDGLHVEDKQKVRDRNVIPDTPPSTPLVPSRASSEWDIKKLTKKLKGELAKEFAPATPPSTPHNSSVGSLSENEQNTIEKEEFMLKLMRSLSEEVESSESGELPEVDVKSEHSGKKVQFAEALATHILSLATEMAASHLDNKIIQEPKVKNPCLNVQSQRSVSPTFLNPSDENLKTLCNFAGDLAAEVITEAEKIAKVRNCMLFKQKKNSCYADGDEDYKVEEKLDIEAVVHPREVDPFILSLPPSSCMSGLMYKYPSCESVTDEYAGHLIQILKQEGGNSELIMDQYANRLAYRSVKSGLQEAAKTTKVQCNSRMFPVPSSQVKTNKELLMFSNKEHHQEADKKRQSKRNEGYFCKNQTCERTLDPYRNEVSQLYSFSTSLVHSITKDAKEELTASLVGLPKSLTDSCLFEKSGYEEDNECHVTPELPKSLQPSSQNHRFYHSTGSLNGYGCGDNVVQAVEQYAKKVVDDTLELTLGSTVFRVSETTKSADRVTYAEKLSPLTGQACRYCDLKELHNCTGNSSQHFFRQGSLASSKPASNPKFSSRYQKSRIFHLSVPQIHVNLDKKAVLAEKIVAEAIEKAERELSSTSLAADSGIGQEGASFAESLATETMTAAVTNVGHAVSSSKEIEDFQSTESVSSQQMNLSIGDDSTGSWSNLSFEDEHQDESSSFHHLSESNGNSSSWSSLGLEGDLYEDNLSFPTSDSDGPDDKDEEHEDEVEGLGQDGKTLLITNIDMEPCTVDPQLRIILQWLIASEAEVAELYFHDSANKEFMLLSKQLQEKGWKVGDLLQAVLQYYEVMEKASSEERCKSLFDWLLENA
UniProt Q9BWD1, 342-361: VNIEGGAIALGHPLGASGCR
UniProt Q7Z6V5, 5-24: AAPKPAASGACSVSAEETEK
UniProt Q9Y2D5: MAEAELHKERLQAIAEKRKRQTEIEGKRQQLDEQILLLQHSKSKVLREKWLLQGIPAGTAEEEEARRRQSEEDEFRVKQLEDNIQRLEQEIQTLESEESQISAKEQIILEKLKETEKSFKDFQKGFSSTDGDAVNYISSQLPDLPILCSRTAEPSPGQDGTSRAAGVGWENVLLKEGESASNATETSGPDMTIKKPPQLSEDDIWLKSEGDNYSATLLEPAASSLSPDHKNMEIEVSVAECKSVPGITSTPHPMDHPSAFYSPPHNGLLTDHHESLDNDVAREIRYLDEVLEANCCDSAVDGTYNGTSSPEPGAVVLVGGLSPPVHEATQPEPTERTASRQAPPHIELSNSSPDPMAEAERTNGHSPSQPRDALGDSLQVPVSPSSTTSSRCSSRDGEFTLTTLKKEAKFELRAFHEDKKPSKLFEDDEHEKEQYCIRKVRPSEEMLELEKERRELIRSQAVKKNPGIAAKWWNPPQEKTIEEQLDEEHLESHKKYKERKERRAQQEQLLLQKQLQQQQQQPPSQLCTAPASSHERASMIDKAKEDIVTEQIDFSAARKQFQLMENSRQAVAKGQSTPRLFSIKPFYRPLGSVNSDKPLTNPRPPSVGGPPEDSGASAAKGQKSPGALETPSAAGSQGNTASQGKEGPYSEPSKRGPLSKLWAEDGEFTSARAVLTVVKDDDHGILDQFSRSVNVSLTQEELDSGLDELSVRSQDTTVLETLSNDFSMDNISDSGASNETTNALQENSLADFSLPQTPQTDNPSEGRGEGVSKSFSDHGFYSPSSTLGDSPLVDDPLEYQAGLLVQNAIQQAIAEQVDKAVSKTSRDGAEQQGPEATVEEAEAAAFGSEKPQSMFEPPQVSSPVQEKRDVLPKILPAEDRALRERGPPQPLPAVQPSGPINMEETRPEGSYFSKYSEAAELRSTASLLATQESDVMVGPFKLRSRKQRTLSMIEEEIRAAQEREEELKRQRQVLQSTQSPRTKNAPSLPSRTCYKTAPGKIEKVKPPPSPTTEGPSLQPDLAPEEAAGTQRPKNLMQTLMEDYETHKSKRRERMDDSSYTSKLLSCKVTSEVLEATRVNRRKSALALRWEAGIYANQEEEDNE
UniProt Q96AP0: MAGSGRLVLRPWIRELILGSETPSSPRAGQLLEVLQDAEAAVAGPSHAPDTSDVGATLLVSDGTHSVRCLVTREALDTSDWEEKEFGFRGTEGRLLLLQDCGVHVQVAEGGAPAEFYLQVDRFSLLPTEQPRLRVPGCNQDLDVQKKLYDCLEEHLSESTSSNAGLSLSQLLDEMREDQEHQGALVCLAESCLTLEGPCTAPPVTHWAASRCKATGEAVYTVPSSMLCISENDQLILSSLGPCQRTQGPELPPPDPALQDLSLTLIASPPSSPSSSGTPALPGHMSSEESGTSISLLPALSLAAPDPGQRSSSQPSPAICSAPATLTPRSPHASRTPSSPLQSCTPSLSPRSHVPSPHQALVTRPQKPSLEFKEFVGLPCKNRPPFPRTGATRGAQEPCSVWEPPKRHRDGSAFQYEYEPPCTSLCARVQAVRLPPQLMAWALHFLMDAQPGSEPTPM
UniProt Q02952, 1457-1482: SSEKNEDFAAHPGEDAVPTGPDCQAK
UniProt Q9Y673: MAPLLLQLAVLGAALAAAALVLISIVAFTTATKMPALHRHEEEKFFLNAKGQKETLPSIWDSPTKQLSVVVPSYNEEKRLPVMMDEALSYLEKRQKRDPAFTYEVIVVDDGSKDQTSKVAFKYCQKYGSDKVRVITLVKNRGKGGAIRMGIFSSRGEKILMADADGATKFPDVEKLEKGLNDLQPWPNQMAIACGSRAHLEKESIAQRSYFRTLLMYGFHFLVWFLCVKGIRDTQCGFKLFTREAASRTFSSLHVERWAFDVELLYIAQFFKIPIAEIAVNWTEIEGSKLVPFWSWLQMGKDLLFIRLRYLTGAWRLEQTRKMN
UniProt Q53H12: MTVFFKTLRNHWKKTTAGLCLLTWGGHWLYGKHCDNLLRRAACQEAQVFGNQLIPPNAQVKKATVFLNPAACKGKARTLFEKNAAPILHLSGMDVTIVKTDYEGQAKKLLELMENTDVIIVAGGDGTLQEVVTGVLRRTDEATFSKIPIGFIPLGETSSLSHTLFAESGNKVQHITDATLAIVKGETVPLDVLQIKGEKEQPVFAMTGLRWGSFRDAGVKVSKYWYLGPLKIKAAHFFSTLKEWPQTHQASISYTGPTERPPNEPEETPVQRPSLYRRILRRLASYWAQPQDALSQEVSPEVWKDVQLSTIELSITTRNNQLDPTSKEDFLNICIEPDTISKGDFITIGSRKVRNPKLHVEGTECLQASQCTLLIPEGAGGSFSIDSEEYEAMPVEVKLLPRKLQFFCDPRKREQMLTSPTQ
UniProt Q9UJX3, 82-105: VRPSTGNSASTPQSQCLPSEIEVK
UniProt P30038: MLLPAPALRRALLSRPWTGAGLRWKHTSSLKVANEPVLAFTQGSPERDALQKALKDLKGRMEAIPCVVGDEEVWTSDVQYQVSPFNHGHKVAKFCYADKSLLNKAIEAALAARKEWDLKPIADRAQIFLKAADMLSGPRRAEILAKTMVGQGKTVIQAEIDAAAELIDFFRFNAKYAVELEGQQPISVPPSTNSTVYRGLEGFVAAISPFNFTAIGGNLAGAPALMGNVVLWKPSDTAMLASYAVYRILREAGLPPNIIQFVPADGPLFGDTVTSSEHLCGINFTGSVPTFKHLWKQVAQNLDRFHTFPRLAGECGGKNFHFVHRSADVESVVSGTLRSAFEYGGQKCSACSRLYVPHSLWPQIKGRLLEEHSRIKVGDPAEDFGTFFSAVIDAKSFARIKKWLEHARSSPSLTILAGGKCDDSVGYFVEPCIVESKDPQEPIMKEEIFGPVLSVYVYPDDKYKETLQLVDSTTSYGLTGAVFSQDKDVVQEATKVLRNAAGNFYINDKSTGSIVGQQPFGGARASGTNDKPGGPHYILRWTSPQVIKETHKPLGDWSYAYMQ
UniProt Q3SY69: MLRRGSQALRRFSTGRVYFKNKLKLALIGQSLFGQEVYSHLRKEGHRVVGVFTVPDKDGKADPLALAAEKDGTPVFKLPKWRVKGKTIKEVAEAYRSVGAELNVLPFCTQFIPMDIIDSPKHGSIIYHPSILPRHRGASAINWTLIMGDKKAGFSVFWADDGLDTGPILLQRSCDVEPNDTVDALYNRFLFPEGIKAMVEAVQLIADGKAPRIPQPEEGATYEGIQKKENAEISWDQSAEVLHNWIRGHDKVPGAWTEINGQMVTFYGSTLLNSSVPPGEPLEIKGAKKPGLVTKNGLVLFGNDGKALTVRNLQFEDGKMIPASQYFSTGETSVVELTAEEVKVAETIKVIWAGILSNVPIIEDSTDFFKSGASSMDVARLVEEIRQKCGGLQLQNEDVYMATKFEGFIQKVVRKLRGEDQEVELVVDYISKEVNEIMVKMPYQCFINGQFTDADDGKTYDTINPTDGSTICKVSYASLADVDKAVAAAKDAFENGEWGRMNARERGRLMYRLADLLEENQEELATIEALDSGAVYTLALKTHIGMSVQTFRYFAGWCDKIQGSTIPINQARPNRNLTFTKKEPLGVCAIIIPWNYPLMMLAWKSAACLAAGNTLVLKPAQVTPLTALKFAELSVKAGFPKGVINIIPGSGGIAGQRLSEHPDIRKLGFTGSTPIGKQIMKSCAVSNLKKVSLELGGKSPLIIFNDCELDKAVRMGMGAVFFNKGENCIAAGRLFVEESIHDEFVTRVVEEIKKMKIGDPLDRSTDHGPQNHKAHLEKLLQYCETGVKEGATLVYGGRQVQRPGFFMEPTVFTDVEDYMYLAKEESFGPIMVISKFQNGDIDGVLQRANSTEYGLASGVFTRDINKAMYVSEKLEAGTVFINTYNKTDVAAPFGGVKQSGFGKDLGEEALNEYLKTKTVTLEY

compound: ClCC(=O)N[C@H]1CCCc2ccccc12; assay: log2 mean competition ratio of IA-DTB cysteine labelling (DMSO/compound) (log2 ratio); higher = stronger cysteine engagement by compound; conditions: 50 µM; treatment time: 4 h; cell line lysate: HEK293T
Procedure: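 IA-DTB competitive cysteine chemoproteomics in HEK293T RIPA lysate. Lysates were treated with compound 29 or 30 at 50 or 200 µM for 4 h, then IA-DTB (500 µM, 1 h), trypsin-digested, NeutrAvidin-enriched and analysed by diaPASEF. Competition ratio = intensity DMSO / intensity compound (n=4 treated, n=64 DMSO); binding: mean log2 CR ≥ 1 and p ≤ 0.05 plus QC filters. Target is the cysteine site.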

| Target | log2 mean competition ratio |
| --- | --- |
| ACSS3 C498 (UniProt Q9H6R3) | 0.464 |
| AKAP11 C1587 (UniProt Q9UKA4) | 0.278 |
| ACAT2 C360 (UniProt Q9BWD1) | 0.164 |
| ANKHD1 C873 | 0.519 |
| ADAT2 C15 (UniProt Q7Z6V5) | 0.342 |
| AKAP2 C205 (UniProt Q9Y2D5) | -0.317 |
| ACD C399 (UniProt Q96AP0) | -0.278 |
| AKAP12 C1479 (UniProt Q02952) | 0.211 |
| ALG5 C236 (UniProt Q9Y673) | 0.354 |
| AGK C72 (UniProt Q53H12) | 0.308 |
| ADD1 C525 (UniProt P35611) | 0.472 |
| ADD2 C177 (UniProt P35612) | -0.176 |
| ANAPC7 C97 (UniProt Q9UJX3) | 0.646 |
| ALDH4A1 C315 (UniProt P30038) | -0.127 |
| AKAP9 C1782 (UniProt Q99996) | -0.168 |
| AFDN C870 | 0.678 |
| ALDH1L2 C783 (UniProt Q3SY69) | -0.144 |
| AGPS C413 (UniProt O00116) | 0.205 |
| AFAP1 C395 (UniProt Q8N556) | -0.126 |
| ADAMTS1 C333 | 0.0414 |

same assay, conditions: 200 µM; treatment time: 4 h; cell line lysate: HEK293T

| Target | log2 mean competition ratio |
| --- | --- |
| ACSS3 C498 (UniProt Q9H6R3) | -0.0386 |
| AKAP11 C1587 (UniProt Q9UKA4) | 0.215 |
| ACAT2 C360 (UniProt Q9BWD1) | -0.166 |
| ANKHD1 C873 | -0.32 |
| ADAT2 C15 (UniProt Q7Z6V5) | -0.312 |
| AKAP2 C205 (UniProt Q9Y2D5) | 0.0392 |
| ACD C399 (UniProt Q96AP0) | 0.277 |
| AKAP12 C1479 (UniProt Q02952) | -0.201 |
| ALG5 C236 (UniProt Q9Y673) | 0.0712 |
| AGK C72 (UniProt Q53H12) | 0.0538 |
| ADD1 C525 (UniProt P35611) | 0.236 |
| ADD2 C177 (UniProt P35612) | -0.311 |
| ANAPC7 C97 (UniProt Q9UJX3) | 0.0218 |
| ALDH4A1 C315 (UniProt P30038) | 0.171 |
| AKAP9 C1782 (UniProt Q99996) | -0.277 |
| AFDN C870 | -0.066 |
| ALDH1L2 C783 (UniProt Q3SY69) | -0.0487 |
| AGPS C413 (UniProt O00116) | -0.0203 |
| AFAP1 C395 (UniProt Q8N556) | -0.143 |
| ADAMTS1 C333 | 0.111 |
